The other results are listed elsewhere or left out. The main result of the screen is listed elsewhere. These columns were measured beside it and carry no call. Most of these compounds were active or inconclusive in the main read-out, so they are no random draw. Words in brackets tell the shape of the fitted curve; partial curves, single points and poor fits give uncertain potencies.
Test: qHTS Assay for Lipid Storage Modulators in Drosophila S3 Cells;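 for cell number change: cells counted by Cell Tracker Red CMTPX staining in the red channel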
Settings: BODIPY lipid droplet fluorescence, 18-24 h; for cell number change: measured here: cell count max response, cells fed with added oleic acid
How it was run: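 Drosophila S3 cells loaded with oleic acid (400 uM, as added) and compounds at several concentrations; lipid droplets imaged by 488-nm laser-scanning cytometry, 500–530 nm intensity and object ratio to cell channel. Percent activity normalized to 20 uM Triacsin C.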

[1] = measured here: cell number channel AC50, cells fed with added oleic acid
[2] = measured here: lipid fluorescence (Fed channel) AC50, cells fed with added oleic acid

Row | Structure (SMILES) | cell number change | AC50 [1] | AC50 [2]
1 | Cc1ccc(N(CC(=O)NCc2ccc3c(c2)OCO3)C(=O)CCC(=O)Nc2ccccn2)cc1 | 41% | 29.1 µM [rising, single point] | –
2 | CCN=C1S/C(=C\c2cc(Cl)c(OC)c(OC)c2)C(=O)N1CC | 20.7% | – | 1.16 µM [rising, partial curve]
3 | CCc1cc(-c2onc(C)c2-c2cscn2)c(O)cc1OC | 48.8% | 29.1 µM [rising, single point] | 29.1 µM [rising, single point]
4 | CCN(CC)CCOCCOc1ccccc1F | 12.1% | – | 20.6 µM [falling, partial curve]
5 | COc1ccc(OC)c(S(=O)(=O)NC2CCSc3ccccc32)c1 (stereo not given) | -4.7% | – | –
6 | O=C(Nc1ccc(C(F)(F)F)cc1)c1ccc(NC(=O)C2CCCO2)cc1 (stereo not given) | 24.8% | – | 5.8 µM [rising, partial curve]
7 | Cc1ccccc1N1CCN(CCCN2C(=O)CC(=C(c3ccccc3)c3ccccc3)C2=O)CC1 | 37.5% | 8.2 µM [rising, single point] | –
8 | CN1CCN(/C=N/c2sc3c(c2C#N)CCCCC3)CC1 | -18.5% | – | 0.164 µM [rising, full curve, poor fit]
9 | COc1cccc(C(O)c2cnc(C(C)C)n2C)c1OC (stereo not given) | -12.8% | – | 0.146 µM [falling, partial curve]
10 | COc1ccc(S(=O)(=O)N2CCOCC2)cc1NC(=O)c1ccc2c(c1)OCO2 | -34.9% | 8.2 µM [falling, partial curve] | 11.6 µM [falling, partial curve, poor fit]
11 | Cc1cc(C)c2nc(NC3=NCN(CCN4CCOCC4)CN3)nc(C)c2c1 | – | – | 18.4 µM [falling, partial curve]
12 | O=C(NC1CCCCC1)c1cccc(OCc2ccccc2)c1 | 7.33% | 6.51 µM [rising, single point] | –
13 | CCCCCCCc1nc2c(=O)n(C)c3ccccc3c2o1 | 61.7% | 0.82 µM [rising, full curve] | 2.31 µM [rising, partial curve]
14 | CCOc1ccc(OCC)c(NC(=O)C2CCN(c3nn4c(=O)cc(C)nc4s3)CC2)c1 | -33.7% | 1.3 µM [falling, full curve, poor fit] | –
15 | CCOC(=O)c1c(-c2ccc(F)cc2)csc1NC(=O)C1CC=CCC1C(=O)O (stereo not given) | -17.6% | 2.59 µM [falling, single point] | 6.51 µM [falling, single point]
16 | COc1ccc(C(CNC(=O)COc2c(C)cc(C)cc2C)N2CCOCC2)cc1 (stereo not given) | 1.77% | – | 29.1 µM [rising, single point]
17 | Cc1ccc(NC(=O)C(=O)NCCOc2ccc(Cl)cc2)c(C)c1 | 25.1% | – | 0.366 µM [rising, full curve]
18 | Cc1[nH]n(C(N)=S)c(=O)c1N=Nc1ccc(Br)cc1 | -26.5% | – | 29.1 µM [falling, single point]
19 | Cn1c(CC(=O)Nc2ccc(Cl)c(Cl)c2)nnc1SCC(=O)Nc1nccs1 | – | 1.03 µM [rising, full curve] | 0.731 µM [rising, full curve]
20 | CC(C)n1c(O)c(/C=C2\C=Nc3ccccc32)sc1=Nc1ccccc1 | 29.7% | – | 16.4 µM [rising, single point]

Row | Structure (SMILES) | cell number change | AC50 [1] | AC50 [2]
21 | O=C(COC(=O)CSc1ccc([N+](=O)[O-])cc1)NCC1CCCO1 (stereo not given) | 3.97% | 0.651 µM [falling, single point] | –
22 | CC(C(=O)NCCN1C(=O)S/C(=C\c2cccnc2)C1=O)N1C(=O)c2ccccc2C1=O (stereo not given) | 2.27% | – | 0.13 µM [rising, full curve, poor fit]
23 | O=c1[nH]c2cc3c(cc2cc1CN(CC1CCCO1)S(=O)(=O)c1ccccc1)OCCO3 (stereo not given) | 7.67% | – | 7.31 µM [rising, partial curve]
24 | N/C(=N\OC(=O)c1ccc(Cl)cc1[N+](=O)[O-])c1cccnc1 | -57.7% | 29.1 µM [falling, single point] | 29.1 µM [falling, single point]
25 | CNC(=O)CNC(=O)Nc1ccc(C)cc1 | 8.68% | – | 0.651 µM [falling, single point]
26 | COc1ccc(CCNC(=O)CCCCCn2c(SCC(N)=O)nc3cc4c(cc3c2=O)OCO4)cc1OC | – | 0.116 µM [rising, single point] | 0.092 µM [rising, partial curve, poor fit]
27 | CCNC(=O)CN1C(=O)NC(Cc2ccccc2)(Cc2ccccc2)C1=O | 15.9% | – | 29.1 µM [rising, single point]
28 | N=c1c(C(=O)NCc2ccc3c(c2)OCO3)cc2c(=O)n3ccccc3nc2n1Cc1cccnc1 | -27.2% | – | –
29 | COc1ccc(CC(=O)Nc2ccc(C(=O)O)cc2NC(=O)Cc2ccc(OC)cc2)cc1 | -3.13% | – | 20.6 µM [falling, single point]
30 | O=C(Nc1ccc(-c2nc3ccccc3o2)cc1)c1ccc(N2CCOCC2)c([N+](=O)[O-])c1 | 145% | 29.1 µM [rising, single point] | 29.1 µM [rising, single point]
31 | CC(=O)NC12CC3CC(C1)CC(C(=O)N(C)CC(=O)Nc1ccc(F)c(F)c1F)(C3)C2 | -6.88% | – | –
32 | CCC(C)(C)NC(=O)C(c1ccco1)N(C(=O)c1csnn1)c1cccc(F)c1 (stereo not given) | -0.698% | – | 29.1 µM [falling, single point]
33 | CN(C)CCCN1C(=O)c2cccc3c([N+](=O)[O-])ccc(c23)C1=O | -63.9% | 29.1 µM [falling, single point] | 29.1 µM [falling, single point]
34 | CC(C)Oc1cc(NC(=O)CSCC(=O)Nc2cccc(C(F)(F)F)c2)c(Cl)cc1Cl | – | – | 25.9 µM [falling, single point]
35 | Cc1ccnc2nc(C(=O)OCC(=O)NCc3cccc(Cl)c3)nn12 | 4.75% | – | 1.84 µM [falling, full curve, poor fit]
36 | CCc1cccc(C)c1NC(=O)N(C)C1CCCCC1 | -32.9% | 0.231 µM [falling, full curve] | 0.326 µM [falling, full curve, poor fit]
37 | COC(=O)c1cc2ccsc2n1CC(=O)N1CCCc2ccccc21 | -18.1% | – | 0.146 µM [falling, single point]
38 | Cc1cc(C)n2nc(C(=O)Nc3nnc(C4CC4)s3)nc2n1 | -10.1% | – | 5.17 µM [falling, full curve, poor fit]
39 | O=C(O)C1C(c2ccccc2)C(C(=O)OCc2ccco2)C1c1ccccc1 (stereo not given) | -10.2% | – | –
40 | Cc1ccc(N(Cc2ccccc2)C(=O)c2cccc(F)c2)cc1 | 16.8% | – | 0.461 µM [falling, single point]

Row | Structure (SMILES) | cell number change | AC50 [1] | AC50 [2]
41 | CCCn1c(=O)c2ccccc2n2c(SCCOc3ccccc3)nnc12 | -27.9% | – | –
42 | CCN(CCO)c1ncnc2c1sc1nc(CC(C)C)c3c(c12)CC(C)(C)OC3 | 23.1% | – | 13 µM [rising, partial curve]
43 | CCOc1ccc(NC(=O)N(C2CCCCC2)C(C)c2cccnc2)cc1 (stereo not given) | 0.184% | – | 1.3 µM [rising, full curve, poor fit]
44 | Cc1cccc(NC(=O)c2ccc3c(c2)C(=O)N(c2ccccc2C)C3=O)n1 | – | 3.66 µM [rising, partial curve, poor fit] | –
45 | COc1ccc(-n2c(-c3cnccn3)n[nH]c2=S)cc1 | 4.74% | – | 29.1 µM [falling, single point]
46 | COc1ccc(-c2c(C)oc3c(CN4CCN(CCO)CC4)c(O)ccc3c2=O)cc1OC | – | – | 6.51 µM [rising, single point]
47 | Cc1ccc(F)cc1NS(=O)(=O)c1ccc(Cl)s1 | -9.77% | – | 0.082 µM [rising, full curve, poor fit]
48 | COC(=O)c1sc(N2CCN(Cc3ccccc3)CC2)nc1N | 18% | – | 3.66 µM [rising, partial curve]
49 | CC(C)C(=O)N1CCC(n2nccc2NC(=O)CCc2ccccc2)CC1 | 23.2% | – | 29.1 µM [rising, single point]
50 | CCOc1ccc(S(=O)(=O)N2CCc3cc(OC)c(OC)cc3C2)cc1 | -13.4% | – | 18.4 µM [rising, single point]
51 | CCOc1ccc(C2C(C#N)=C(N)SC(N)=C2C#N)cc1OCC | -78.8% | 18.4 µM [falling, partial curve] | 29.1 µM [falling, single point]
52 | Cc1c(C2Nc3ccccc3NC3=C2C(=O)CC(C)(C)C3)cnn1C (stereo not given) | -21.5% | – | 0.82 µM [falling, partial curve]
53 | Cc1cccc(C(C)C)c1NC(=O)COC(=O)CNS(=O)(=O)c1ccccc1 | – | – | 0.58 µM [rising, full curve, poor fit]
54 | COCCNC(=O)c1ccccc1NC(=O)c1ccccc1N(C)S(=O)(=O)c1ccc(C)cc1 | -39.8% | – | 0.00517 µM [falling, full curve, poor fit]
55 | CC1(C)C2CCC1(C)C(OC(=O)CNc1ccccc1)C2 (stereo not given) | -0.117% | – | 0.651 µM [falling, partial curve, poor fit]
56 | O=C1CCC(=O)N1OCCCOc1ccccc1 | 19.1% | – | 0.00517 µM [falling, full curve]
57 | O=C(Nc1ccccc1C(=O)O)c1cccc(NS(=O)(=O)c2ccc(Br)cc2)c1 | -13.2% | – | 14.6 µM [rising, partial curve]
58 | Cc1ccccc1CN1CCN(S(=O)(=O)c2cccc3nsnc23)CC1 | -0.293% | – | 32.6 µM [falling, single point]

Of the compounds above, four contain a COOH group.
Row | Structure (SMILES) | cell number change | AC50 [1] | AC50 [2]
15 | CCOC(=O)c1c(-c2ccc(F)cc2)csc1NC(=O)C1CC=CCC1C(=O)O (stereo not given) | -17.6% | 2.59 µM [falling, single point] | 6.51 µM [falling, single point]
29 | COc1ccc(CC(=O)Nc2ccc(C(=O)O)cc2NC(=O)Cc2ccc(OC)cc2)cc1 | -3.13% | – | 20.6 µM [falling, single point]
39 | O=C(O)C1C(c2ccccc2)C(C(=O)OCc2ccco2)C1c1ccccc1 (stereo not given) | -10.2% | – | –
57 | O=C(Nc1ccccc1C(=O)O)c1cccc(NS(=O)(=O)c2ccc(Br)cc2)c1 | -13.2% | – | 14.6 µM [rising, partial curve]

From PubChem BioAssay AID2685 (National Center for Advancing Translational Sciences (NCATS), 2010)
